According to article PMC12369641:
Results are given in words; binding and its absence hold for the method and conditions named. In cells and extracts the contact can be indirect. Binding can be weak; no strength is given.

Amino acid sequences for entries named in this document (tags omitted). A change or cut given only in a name is not applied to a line headed by its entry.
UniProt O88884: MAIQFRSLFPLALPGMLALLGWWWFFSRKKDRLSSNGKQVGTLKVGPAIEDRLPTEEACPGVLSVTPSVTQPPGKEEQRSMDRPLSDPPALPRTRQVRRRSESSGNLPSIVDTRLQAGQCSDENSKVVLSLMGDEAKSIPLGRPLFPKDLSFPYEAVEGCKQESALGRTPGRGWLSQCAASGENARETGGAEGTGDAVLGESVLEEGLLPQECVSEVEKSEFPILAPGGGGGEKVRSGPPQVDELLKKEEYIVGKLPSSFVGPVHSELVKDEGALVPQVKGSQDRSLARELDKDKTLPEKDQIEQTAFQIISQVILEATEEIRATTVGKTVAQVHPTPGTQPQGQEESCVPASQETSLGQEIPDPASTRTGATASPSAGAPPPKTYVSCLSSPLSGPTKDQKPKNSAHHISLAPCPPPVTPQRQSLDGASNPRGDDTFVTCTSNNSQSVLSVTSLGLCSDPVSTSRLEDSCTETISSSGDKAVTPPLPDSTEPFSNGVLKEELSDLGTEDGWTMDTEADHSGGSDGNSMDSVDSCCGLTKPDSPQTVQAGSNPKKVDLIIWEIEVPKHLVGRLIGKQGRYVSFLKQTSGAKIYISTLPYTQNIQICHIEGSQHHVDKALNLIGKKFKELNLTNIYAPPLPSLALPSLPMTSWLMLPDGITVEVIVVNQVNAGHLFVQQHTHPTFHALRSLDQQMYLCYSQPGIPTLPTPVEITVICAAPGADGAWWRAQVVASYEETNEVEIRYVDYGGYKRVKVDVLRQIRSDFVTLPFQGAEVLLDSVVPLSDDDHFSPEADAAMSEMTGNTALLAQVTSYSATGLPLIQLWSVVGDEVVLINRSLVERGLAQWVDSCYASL
UniProt P31321: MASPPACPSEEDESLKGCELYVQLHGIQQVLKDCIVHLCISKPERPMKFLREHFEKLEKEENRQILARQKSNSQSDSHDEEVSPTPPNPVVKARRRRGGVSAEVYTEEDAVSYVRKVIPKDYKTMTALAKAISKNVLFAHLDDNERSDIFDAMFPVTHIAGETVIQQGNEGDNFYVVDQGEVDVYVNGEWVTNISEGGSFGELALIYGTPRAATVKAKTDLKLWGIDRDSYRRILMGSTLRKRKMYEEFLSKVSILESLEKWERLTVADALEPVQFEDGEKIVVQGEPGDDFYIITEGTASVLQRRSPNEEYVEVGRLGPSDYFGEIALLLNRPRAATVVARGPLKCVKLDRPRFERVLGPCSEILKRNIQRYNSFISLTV

Target: dual-specific (d)AKAP1 (UniProt O88884)
Assay: split reporter; NanoBiT luciferase complementation in live COS-1 and HEK293 cells; 3 h Opti-MEM to deplete basal cAMP; 37°C; normalised to maximum complementation (HiBiT peptide) and to the RIβ^WT-LgBiT, RIβ^WT-SmBiT condition

## RIβ^WT-SmBiT (from UniProt P31321 1-381)
  binding: binds
